Patent US11739385B2, “Discovery of a somatic mutation in MYD88 gene in lymphoplasmacytic lymphoma” (Dana-Farber Cancer Institute, Inc., priority 2011, dated 2023)
“Also recorded” adds a separate entry of the source. For at least one compound, name, drawing or mass did not settle the structure.

Test system: MYD88 L265P expressing WM cells
Assay: Apoptosis analysis by Annexin V and PI staining
Format: cell-based
Details: Annexin V and PI staining after treatment for 24 hrs
Method: Western blot analysis was performed using total and phospho-specific antibodies in MYD88 L265P expressing WM cells, BCWM.1 and MCWL-1 following MYD88 knockdown by lentiviral transduction, and/or use of MYD88 or IRAK signal inhibitors. […] Annexin V/PI staining was used to assess cell survival, and synergism assessed with CalcuSyn software.

## C=CC(=O)N1CCC[C@@H](n2nc(-c3ccc(Oc4ccccc4)cc3)c3c(N)ncnc32)C1 [PCI-32765, Ibrutinib]
  apoptosis / tumor cell killing, alone: induces apoptosis; also recorded: robust tumor killing
